Laboratory results as given in the supplement of paper PMC10849652.
Some of the results follow. Residues, ends and D or L forms follow the SMILES beside them. *: point of attachment. Cbz = O=C(OCc1ccccc1)*

Protein sequences, listed by entry. Tags and fused reporters are not part of them. Lines headed by an entry give the natural chain unless they say otherwise; changes in a name come on top.
UniProt O43760: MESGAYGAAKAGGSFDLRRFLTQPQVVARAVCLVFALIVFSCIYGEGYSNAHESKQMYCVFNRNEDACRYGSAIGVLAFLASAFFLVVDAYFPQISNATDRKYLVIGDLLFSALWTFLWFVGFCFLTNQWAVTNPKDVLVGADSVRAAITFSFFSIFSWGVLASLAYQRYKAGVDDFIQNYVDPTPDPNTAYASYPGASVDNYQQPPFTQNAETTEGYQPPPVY
UniProt O60506: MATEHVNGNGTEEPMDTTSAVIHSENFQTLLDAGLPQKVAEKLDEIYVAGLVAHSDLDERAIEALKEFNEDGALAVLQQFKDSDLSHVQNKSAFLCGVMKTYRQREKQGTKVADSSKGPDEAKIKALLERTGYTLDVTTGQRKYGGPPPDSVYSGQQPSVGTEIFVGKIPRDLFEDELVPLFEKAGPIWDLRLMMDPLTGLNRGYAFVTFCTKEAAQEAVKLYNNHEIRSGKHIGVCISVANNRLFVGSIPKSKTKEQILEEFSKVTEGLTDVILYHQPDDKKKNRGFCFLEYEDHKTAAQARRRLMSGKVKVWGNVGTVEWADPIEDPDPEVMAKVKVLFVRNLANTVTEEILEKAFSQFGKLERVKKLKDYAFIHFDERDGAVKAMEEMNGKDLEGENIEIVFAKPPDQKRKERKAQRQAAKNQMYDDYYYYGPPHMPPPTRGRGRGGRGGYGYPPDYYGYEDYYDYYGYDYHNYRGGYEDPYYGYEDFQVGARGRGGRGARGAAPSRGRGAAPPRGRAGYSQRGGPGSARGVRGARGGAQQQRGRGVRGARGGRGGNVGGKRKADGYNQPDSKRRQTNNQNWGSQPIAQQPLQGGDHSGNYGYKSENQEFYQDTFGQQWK
UniProt O75683: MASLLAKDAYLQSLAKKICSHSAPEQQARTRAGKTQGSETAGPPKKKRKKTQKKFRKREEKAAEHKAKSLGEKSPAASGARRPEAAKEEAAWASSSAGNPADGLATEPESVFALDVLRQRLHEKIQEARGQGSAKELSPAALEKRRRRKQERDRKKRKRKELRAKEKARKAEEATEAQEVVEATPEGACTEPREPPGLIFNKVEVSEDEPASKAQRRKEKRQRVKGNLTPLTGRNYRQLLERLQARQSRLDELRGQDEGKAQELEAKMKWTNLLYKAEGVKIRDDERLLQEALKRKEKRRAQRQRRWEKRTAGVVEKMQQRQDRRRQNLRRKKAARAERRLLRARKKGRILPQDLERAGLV
UniProt Q15633: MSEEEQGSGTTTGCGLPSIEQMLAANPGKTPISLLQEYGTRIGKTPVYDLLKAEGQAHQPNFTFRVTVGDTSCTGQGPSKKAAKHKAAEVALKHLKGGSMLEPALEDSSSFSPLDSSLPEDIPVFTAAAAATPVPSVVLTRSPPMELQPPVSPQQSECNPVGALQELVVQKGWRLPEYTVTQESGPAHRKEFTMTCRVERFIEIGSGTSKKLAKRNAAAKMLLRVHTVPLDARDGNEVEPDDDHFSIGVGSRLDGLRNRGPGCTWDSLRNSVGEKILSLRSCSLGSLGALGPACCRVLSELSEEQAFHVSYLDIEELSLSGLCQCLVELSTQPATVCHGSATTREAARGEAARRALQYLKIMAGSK
UniProt Q86Y82: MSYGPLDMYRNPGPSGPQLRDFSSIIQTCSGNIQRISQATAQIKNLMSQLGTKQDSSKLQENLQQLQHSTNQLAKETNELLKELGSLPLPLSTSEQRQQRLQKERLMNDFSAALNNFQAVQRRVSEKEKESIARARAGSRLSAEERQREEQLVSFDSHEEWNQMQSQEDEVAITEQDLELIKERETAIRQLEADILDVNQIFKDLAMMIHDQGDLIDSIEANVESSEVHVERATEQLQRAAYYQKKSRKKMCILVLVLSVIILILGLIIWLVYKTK
UniProt Q8NHG7: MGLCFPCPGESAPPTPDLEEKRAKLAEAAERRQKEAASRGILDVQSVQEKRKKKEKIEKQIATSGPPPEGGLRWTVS
UniProt Q9UH65: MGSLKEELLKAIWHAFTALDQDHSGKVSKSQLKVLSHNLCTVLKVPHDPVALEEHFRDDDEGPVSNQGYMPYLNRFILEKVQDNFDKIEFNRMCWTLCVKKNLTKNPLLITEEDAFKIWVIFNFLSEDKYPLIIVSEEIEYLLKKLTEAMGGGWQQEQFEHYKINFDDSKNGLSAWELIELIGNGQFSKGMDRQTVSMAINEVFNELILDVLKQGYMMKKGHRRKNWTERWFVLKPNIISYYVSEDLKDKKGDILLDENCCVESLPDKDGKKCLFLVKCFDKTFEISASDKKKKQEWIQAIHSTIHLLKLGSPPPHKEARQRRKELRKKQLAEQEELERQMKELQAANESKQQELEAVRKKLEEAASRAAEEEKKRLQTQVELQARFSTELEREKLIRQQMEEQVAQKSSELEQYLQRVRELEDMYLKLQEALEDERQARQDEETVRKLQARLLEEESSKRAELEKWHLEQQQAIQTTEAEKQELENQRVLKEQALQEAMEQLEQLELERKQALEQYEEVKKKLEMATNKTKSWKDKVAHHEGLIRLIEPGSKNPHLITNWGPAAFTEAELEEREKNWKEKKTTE
UniProt Q8TCJ2: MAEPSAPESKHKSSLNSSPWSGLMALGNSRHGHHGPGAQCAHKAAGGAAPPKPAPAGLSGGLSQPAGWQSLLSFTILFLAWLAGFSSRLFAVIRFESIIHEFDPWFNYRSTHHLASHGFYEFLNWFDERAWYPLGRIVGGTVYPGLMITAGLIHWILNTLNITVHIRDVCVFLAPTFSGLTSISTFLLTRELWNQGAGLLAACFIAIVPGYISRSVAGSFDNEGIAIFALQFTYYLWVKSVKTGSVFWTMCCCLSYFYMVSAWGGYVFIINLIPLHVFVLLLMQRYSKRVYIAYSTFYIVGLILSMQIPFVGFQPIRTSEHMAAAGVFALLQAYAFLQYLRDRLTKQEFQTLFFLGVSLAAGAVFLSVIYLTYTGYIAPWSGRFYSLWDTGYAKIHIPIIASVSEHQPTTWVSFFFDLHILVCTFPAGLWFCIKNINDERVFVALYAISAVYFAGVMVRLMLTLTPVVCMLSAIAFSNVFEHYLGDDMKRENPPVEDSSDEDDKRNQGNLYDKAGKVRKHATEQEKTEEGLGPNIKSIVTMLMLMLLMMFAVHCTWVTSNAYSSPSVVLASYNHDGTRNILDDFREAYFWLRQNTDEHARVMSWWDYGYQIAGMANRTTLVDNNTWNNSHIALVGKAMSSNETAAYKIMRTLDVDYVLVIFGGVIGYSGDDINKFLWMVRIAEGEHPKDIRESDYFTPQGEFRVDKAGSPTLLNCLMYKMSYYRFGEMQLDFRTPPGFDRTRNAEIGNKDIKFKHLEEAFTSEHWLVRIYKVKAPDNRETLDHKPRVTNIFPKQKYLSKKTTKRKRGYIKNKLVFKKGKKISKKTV
UniProt O00186: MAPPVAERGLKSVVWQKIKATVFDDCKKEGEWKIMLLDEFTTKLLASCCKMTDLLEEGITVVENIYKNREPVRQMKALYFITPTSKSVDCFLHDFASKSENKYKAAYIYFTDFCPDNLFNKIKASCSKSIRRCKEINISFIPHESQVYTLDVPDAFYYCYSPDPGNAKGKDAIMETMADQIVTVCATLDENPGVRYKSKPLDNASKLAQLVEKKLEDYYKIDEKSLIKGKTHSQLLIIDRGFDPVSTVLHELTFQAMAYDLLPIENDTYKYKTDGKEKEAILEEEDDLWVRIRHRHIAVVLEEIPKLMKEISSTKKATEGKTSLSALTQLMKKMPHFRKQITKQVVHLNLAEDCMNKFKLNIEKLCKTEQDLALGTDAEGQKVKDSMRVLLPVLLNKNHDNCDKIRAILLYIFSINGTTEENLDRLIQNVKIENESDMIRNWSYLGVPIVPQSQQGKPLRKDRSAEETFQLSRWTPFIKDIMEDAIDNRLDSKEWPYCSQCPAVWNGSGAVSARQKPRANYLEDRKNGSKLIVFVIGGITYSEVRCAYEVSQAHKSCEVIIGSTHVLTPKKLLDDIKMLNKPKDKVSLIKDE
UniProt Q96A49: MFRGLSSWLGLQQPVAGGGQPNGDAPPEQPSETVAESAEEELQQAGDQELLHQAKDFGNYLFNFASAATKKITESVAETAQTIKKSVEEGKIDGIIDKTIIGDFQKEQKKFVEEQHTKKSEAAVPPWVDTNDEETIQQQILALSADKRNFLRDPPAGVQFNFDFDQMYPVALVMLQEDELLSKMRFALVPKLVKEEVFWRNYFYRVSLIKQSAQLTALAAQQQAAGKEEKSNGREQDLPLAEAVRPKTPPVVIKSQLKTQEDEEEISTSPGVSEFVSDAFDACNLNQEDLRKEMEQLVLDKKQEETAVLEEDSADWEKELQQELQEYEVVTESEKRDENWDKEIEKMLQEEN
UniProt A2RTX5: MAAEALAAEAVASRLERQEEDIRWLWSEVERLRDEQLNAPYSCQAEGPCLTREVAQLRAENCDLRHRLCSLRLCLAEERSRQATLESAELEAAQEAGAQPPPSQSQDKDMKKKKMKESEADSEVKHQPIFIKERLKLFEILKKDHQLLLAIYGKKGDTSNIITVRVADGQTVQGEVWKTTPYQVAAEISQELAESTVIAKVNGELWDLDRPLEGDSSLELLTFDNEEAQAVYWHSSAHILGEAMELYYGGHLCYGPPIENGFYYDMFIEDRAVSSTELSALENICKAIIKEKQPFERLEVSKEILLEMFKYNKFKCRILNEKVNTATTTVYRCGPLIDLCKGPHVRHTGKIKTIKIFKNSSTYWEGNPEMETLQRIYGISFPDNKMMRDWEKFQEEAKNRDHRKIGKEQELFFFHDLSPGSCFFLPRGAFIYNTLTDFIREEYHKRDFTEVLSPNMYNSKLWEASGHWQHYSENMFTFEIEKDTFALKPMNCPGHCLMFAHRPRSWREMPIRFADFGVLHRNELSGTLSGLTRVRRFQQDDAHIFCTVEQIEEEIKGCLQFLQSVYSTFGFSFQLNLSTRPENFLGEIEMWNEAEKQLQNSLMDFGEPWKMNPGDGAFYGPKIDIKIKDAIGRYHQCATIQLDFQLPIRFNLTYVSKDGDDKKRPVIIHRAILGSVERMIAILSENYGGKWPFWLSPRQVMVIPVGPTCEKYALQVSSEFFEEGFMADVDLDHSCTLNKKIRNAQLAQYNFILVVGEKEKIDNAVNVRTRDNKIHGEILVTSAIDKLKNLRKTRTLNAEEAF
UniProt P55854, whole entry, looked up: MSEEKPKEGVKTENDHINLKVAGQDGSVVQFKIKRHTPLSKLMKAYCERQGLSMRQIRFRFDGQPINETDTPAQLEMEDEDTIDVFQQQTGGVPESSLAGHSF
UniProt Q13188: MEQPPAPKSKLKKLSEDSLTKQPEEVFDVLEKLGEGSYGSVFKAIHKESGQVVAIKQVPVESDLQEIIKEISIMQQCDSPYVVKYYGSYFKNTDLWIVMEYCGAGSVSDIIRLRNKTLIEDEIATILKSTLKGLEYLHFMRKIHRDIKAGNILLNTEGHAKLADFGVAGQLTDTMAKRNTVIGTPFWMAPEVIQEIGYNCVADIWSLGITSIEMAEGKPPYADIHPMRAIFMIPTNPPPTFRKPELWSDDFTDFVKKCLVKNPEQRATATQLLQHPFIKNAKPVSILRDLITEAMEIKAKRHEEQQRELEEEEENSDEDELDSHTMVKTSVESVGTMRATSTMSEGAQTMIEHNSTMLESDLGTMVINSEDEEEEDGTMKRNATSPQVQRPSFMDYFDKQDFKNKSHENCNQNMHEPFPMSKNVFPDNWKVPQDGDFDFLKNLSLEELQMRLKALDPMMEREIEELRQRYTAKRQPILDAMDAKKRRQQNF

Columns and labels:
Assay in all cases: log2 fold change, soluble protein after heating vs DMSO (PISA); higher = thermal stabilisation; K562 cells, 10 uM, 30 min; active = over 0.2 and 3.5 SD of the protein, either way, in both replicates (recomputed)
IRAK-1-4 Inhibitor I = compound: C1COCCN1CCN2C3=CC=CC=C3N=C2NC(=O)C4=CC(=CC=C4)[N+](=O)[O-] [IRAK-1-4 Inhibitor I]
How it was run: (§1)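 K562 cells at 2×10^6 cells/mL were exposed to 10 μM compound for 30 min, then aliquots were heated for 3 min across 48°C-58°C, pooled, and extracted in PBS containing 0.5% NP-40 at 4°C. The supernatant after 21,000xg for 90 min was taken as soluble protein and measured by TMTpro 16plex LC-MS/MS with channel sums equalised. Thermal stability is reported relative to control samples, with values from duplicates. Fold changes are given on a log2 scale.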

ibrutinib = compound: C=CC(=O)N1CCC[C@@H](n2nc(-c3ccc(Oc4ccccc4)cc3)c3c(N)ncnc32)C1 [ibrutinib]
How it was run: as §1

[1] = compound: CC(=O)c1cnc2ccc(-c3cc(Cl)c(O)c(Cl)c3)nc2c1N[C@H]1CC[C@H](CN(C)C)CC1
How it was run: as §1

ralimetinib = compound: CC(C)(C)Cn1c(N)nc2ccc(-c3[nH]c(C(C)(C)C)nc3-c3ccc(F)cc3)nc21 [ralimetinib]
How it was run: as §1

[2] = compound: CC(C)(O)CC(=O)NCCn1ccc2ncnc(Nc3ccc(Oc4cccc(C(F)(F)F)c4)c(Cl)c3)c21
How it was run: as §1

[3] = compound: CC(C)C1=C2N=C(C=C(N2N=C1)NCC3=CC=CC=C3)NCCCCCCN
How it was run: as §1

[4] = compound: CC(C)C[C@@H](C=O)NC(=O)[C@H](CC(C)C)NC(=O)[C@H](CC(C)C)NC(=O)OCc1ccccc1
How it was run: as §1

pinometostat = compound: CC(C)N(C[C@H]1O[C@@H](n2cnc3c(N)ncnc32)[C@H](O)[C@@H]1O)[C@H]1C[C@@H](CCc2nc3cc(C(C)(C)C)ccc3[nH]2)C1 [pinometostat]
How it was run: as §1

[5] = compound: CC1=C(C(CC(=O)N1)C2=CC=C(C=C2)C(F)(F)F)C(=O)NC3=C(C=C4C(=C3)C=NN4)F
How it was run: as §1

[6] = compound: CC1=C(C2=C(C=C1)C(=O)C3=CC=CC=C3N2CCCN)C
How it was run: as §1

[7] = compound: CC1=C(C=C(C=C1)NC(=O)C2=CC(=CC=C2)C(C)(C)C#N)NC3=CC4=C(C=C3)N=CN(C4=O)C
How it was run: as §1

[8] = compound: CC1=C(C=C(C=C1)NC(=O)C2=CC(=CC=C2)N(C)C)NC(=O)C3=CC=C(C=C3)O
How it was run: as §1

[9] = compound: CC1=CC=C(C=C1)SC2=C3C=C(SC3=CN=C2)C(=O)N
How it was run: as §1

[10] = compound: CC1=NC(=CC=C1)C2=C(N=C(N2)C(C)(C)C)C3=CC4=NC=CN=C4C=C3
How it was run: as §1

Nexturastat A = compound: CCCCN(Cc1ccc(C(=O)NO)cc1)C(=O)Nc1ccccc1 [Nexturastat A]
How it was run: as §1

vemurafenib = compound: CCCS(=O)(=O)Nc1ccc(F)c(C(=O)c2c[nH]c3ncc(-c4ccc(Cl)cc4)cc23)c1F [vemurafenib]
How it was run: as §1

[11] = compound: CCCS(=O)(=O)Nc1ccc(F)c(C(=O)c2c[nH]c3ncc(Cl)cc23)c1F
How it was run: as §1

[12] = compound: CCCc1cc(C)[nH]c(=O)c1CNC(=O)c1cc(-c2ccnc(N3CCN(C)CC3)c2)cc2c1cnn2C(C)C
How it was run: as §1

givinostat = compound: CCN(CC)Cc1ccc2cc(COC(=O)Nc3ccc(C(=O)NO)cc3)ccc2c1 [givinostat]
How it was run: as §1

barasertib = compound: CCN(CCCOc1ccc2c(Nc3cc(CC(=O)Nc4cccc(F)c4)[nH]n3)ncnc2c1)CCOP(=O)(O)O [barasertib]
How it was run: as §1

Measured: log2 fold change

SYNGR2 (UniProt O43760)
inactive: IRAK-1-4 Inhibitor I 0.037 | ibrutinib -0.055 | [1] 0.009 | ralimetinib -0.124 | [2] -0.035 | [3] 0.05 | [4] 0.037 | pinometostat 0.022 | [5] -0.03 | [6] 0.097 | [7] -0.025 | [8] -0.018 | [9] -0.033 | [10] -0.028 | Nexturastat A -0.048 | vemurafenib -0.138 | [11] -0.028 | [12] -0.067 | givinostat -0.06 | barasertib 0.002

SYNCRIP isoform 3 (UniProt O60506)
inactive: IRAK-1-4 Inhibitor I -0.109 | ibrutinib 0.106 | [1] -0.026 | ralimetinib 0.137 | [2] 0.134 | [3] 0.043 | [4] 0.026 | pinometostat 0.082 | [5] -0.026 | [6] -0.303 | [7] 0.132 | [8] 0.006 | [9] -0.064 | [10] -0.106 | Nexturastat A 0.127 | vemurafenib -0.055 | [11] -0.101 | [12] 0.027 | givinostat -0.03 | barasertib -0.048

SURF6 (UniProt O75683)
inactive: IRAK-1-4 Inhibitor I -0.059 | ibrutinib 0.033 | [1] 0.137 | ralimetinib 0.236 | [2] 0.176 | [3] 0.27 | [4] 0 | pinometostat 0.15 | [5] -0.079 | [6] -0.562 | [7] -0.102 | [8] -0.067 | [9] -0.096 | [10] -0.215 | Nexturastat A 0.316 | vemurafenib -0.014 | [11] 0.036 | [12] 0.117 | givinostat 0.137 | barasertib -0.178

TARBP2 (UniProt Q15633)
inactive: IRAK-1-4 Inhibitor I -0.079 | ibrutinib -0.024 | [1] -0.025 | ralimetinib 0.327 | [2] 0.064 | [3] 0.013 | [4] 0.022 | pinometostat 0.316 | [5] 0.027 | [6] -0.073 | [7] -0.199 | [8] -0.039 | [9] -0.052 | [10] -0.058 | Nexturastat A 0.255 | vemurafenib -0.036 | [11] -0.095 | [12] -0.005 | givinostat -0.053 | barasertib 0.003

TACC3 (UniProt Q9Y6A5)
inactive: IRAK-1-4 Inhibitor I 0.015 | ibrutinib 0.01 | [1] 0.035 | ralimetinib -0.006 | [2] 0.015 | [3] 0.061 | [4] -0.004 | pinometostat -0.043 | [5] 0.025 | [6] 0.034 | [7] 0.005 | [8] -0.021 | [9] 0.016 | [10] -0.006 | Nexturastat A -0.01 | vemurafenib 0.004 | [11] 0.011 | [12] -0.072 | givinostat -0.052 | barasertib -0.005

STX12 (UniProt Q86Y82)
inactive: IRAK-1-4 Inhibitor I 0.03 | ibrutinib 0.006 | [1] 0.014 | ralimetinib -0.018 | [2] 0.003 | [3] 0.01 | [4] 0.008 | pinometostat -0.073 | [5] 0.002 | [6] 0.105 | [7] -0.001 | [8] 0.023 | [9] 0.038 | [10] 0.025 | Nexturastat A -0.015 | vemurafenib -0.003 | [11] -0.008 | [12] 0.015 | givinostat -0.041 | barasertib 0.004

SUB1 (UniProt P53999)
inactive: IRAK-1-4 Inhibitor I 0.098 | ibrutinib -0.009 | [1] -0.046 | ralimetinib -0.027 | [2] 0.038 | [3] 0.039 | [4] 0.004 | pinometostat 0.018 | [5] 0.009 | [6] 0.019 | [7] -0.024 | [8] 0.016 | [9] -0.016 | [10] -0.029 | Nexturastat A -0.007 | vemurafenib 0.005 | [11] -0.035 | [12] 0.05 | givinostat -0.009 | barasertib 0.014

SVIP (UniProt Q8NHG7)
inactive: IRAK-1-4 Inhibitor I -0.027 | ibrutinib 0.075 | [1] -0.065 | ralimetinib 0.044 | [2] -0.022 | [3] 0.131 | [4] -0.036 | pinometostat -0.085 | [5] 0.029 | [6] 0.057 | [7] 0.026 | [8] -0.029 | [9] 0 | [10] 0.001 | Nexturastat A -0.005 | vemurafenib 0.012 | [11] -0.096 | [12] -0.011 | givinostat -0.054 | barasertib -0.023

SWAP70 (UniProt Q9UH65)
inactive: IRAK-1-4 Inhibitor I 0.006 | ibrutinib 0.033 | [1] 0.018 | ralimetinib 0.048 | [2] 0.035 | [3] -0.004 | [4] -0.03 | pinometostat -0.051 | [5] -0.019 | [6] -0.046 | [7] -0.012 | [8] -0.013 | [9] 0.025 | [10] 0.03 | Nexturastat A -0.06 | vemurafenib 0 | [11] 0.021 | [12] -0.002 | givinostat -0.019 | barasertib -0.014

SYNCRIP (UniProt O60506)
inactive: IRAK-1-4 Inhibitor I -0.099 | ibrutinib 0.043 | [1] 0.066 | ralimetinib 0.093 | [2] 0.081 | [3] -0.021 | [4] 0.08 | pinometostat 0.09 | [5] 0.003 | [6] -0.223 | [7] 0.018 | [8] 0.029 | [9] -0.047 | [10] -0.035 | Nexturastat A 0.128 | vemurafenib -0.038 | [11] -0.038 | [12] 0.063 | givinostat 0.012 | barasertib -0.113

STT3B (UniProt Q8TCJ2)
inactive: IRAK-1-4 Inhibitor I -0.001 | ibrutinib 0.006 | [1] 0.028 | ralimetinib 0.006 | [2] 0.027 | [3] -0.007 | [4] -0.026 | pinometostat 0.029 | [5] 0.016 | [6] -0.011 | [7] 0.009 | [8] 0.03 | [9] -0.058 | [10] -0.053 | Nexturastat A 0.042 | vemurafenib -0.064 | [11] -0.013 | [12] 0.042 | givinostat 0.01 | barasertib -0.005

STXBP3 (UniProt O00186)
inactive: IRAK-1-4 Inhibitor I -0.083 | ibrutinib -0.017 | [1] -0.046 | ralimetinib 0.114 | [2] -0.22 | [3] -0.271 | [4] 0.088 | pinometostat 0.039 | [5] 0.015 | [6] -0.012 | [7] 0.038 | [8] -0.059 | [9] 0.013 | [10] 0.047 | Nexturastat A 0.064 | vemurafenib 0.089 | [11] 0.087 | [12] 0.014 | givinostat 0.062 | barasertib 0.067

SYAP1 (UniProt Q96A49)
inactive: IRAK-1-4 Inhibitor I 0.025 | ibrutinib -0.044 | [1] -0.007 | ralimetinib -0.012 | [2] -0.015 | [3] 0.004 | [4] -0.034 | pinometostat -0.028 | [5] -0.007 | [6] 0.013 | [7] 0.005 | [8] 0.019 | [9] 0.021 | [10] 0.008 | Nexturastat A -0.064 | vemurafenib 0.014 | [11] 0.012 | [12] -0.051 | givinostat -0.028 | barasertib 0.02

TARSL2 (UniProt A2RTX5)
inactive: IRAK-1-4 Inhibitor I 0.051 | ibrutinib -0.009 | [1] -0.011 | ralimetinib -0.021 | [2] -0.083 | [3] -0.15 | [4] -0.032 | pinometostat 0.069 | [5] 0.025 | [6] 0.046 | [7] 0.015 | [8] -0.034 | [9] 0.003 | [10] -0.065 | Nexturastat A -0.01 | vemurafenib -0.004 | [11] -0.005 | [12] 0.007 | givinostat -0.028 | barasertib 0.041

SUMO3 isoform 2 (UniProt P55854)
inactive: IRAK-1-4 Inhibitor I 0.007 | ibrutinib 0.012 | [1] 0.023 | ralimetinib 0.009 | [2] 0.107 | [3] 0.135 | [4] 0.045 | pinometostat 0.007 | [5] 0.098 | [6] -0.165 | [7] -0.097 | [8] 0.062 | [9] -0.028 | [10] -0.09 | Nexturastat A 0.075 | vemurafenib -0.07 | [11] -0.039 | [12] -0.014 | givinostat -0.038 | barasertib -0.079

STK3 isoform 2 (UniProt Q13188)
inactive: IRAK-1-4 Inhibitor I -0.02 | ibrutinib -0.046 | [1] -0.161 | ralimetinib -0.014 | [2] 0.007 | [3] 0.029 | [4] -0.043 | pinometostat -0.046 | [5] -0.009 | [6] 0.013 | [7] -0.046 | [8] 0.004 | [9] -0.027 | [10] 0.079 | Nexturastat A -0.004 | vemurafenib -0.048 | [11] -0.02 | [12] 0.025 | givinostat -0.003 | barasertib -0.01
